Ten targets from the supplement of paper PMC12819154, “High-throughput peptide-centric local stability assay extends protein–ligand identification to membrane proteins, tissues and bacteria” (Nature Structural & Molecular Biology, 2025) can be followed below.

Amino acid sequences for entries named in this document (tags omitted). A change or cut given only in a name is not applied to a line headed by its entry.
UniProt Q9UI43: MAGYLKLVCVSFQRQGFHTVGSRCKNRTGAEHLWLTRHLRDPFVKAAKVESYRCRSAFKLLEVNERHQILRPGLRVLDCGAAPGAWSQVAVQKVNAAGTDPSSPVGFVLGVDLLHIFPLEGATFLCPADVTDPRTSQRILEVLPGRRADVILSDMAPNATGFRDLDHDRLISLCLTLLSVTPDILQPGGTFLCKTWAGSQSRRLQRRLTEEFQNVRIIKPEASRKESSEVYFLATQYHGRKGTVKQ
UniProt Q9UHJ3: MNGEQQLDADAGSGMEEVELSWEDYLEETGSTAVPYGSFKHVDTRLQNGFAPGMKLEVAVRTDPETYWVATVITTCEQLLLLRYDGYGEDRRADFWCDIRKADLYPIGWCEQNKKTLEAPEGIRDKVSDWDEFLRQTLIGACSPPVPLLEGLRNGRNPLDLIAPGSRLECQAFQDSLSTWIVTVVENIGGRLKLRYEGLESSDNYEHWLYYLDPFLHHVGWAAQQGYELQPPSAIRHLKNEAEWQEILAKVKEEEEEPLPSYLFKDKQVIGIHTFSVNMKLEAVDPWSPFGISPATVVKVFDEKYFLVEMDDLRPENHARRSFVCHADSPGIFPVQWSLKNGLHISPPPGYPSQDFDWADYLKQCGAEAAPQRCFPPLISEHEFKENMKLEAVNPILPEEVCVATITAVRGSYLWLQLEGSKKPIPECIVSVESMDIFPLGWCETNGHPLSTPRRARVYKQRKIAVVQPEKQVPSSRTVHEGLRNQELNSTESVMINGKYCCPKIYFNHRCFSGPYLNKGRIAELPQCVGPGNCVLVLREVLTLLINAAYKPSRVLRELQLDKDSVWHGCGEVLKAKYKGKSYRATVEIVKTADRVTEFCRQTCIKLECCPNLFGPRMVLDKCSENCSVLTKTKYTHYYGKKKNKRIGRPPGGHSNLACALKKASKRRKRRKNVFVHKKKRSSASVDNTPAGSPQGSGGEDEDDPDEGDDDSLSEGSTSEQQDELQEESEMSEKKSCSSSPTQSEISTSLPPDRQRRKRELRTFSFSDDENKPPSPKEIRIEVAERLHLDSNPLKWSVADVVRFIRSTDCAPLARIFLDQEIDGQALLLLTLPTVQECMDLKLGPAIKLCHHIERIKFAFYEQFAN
UniProt Q9UPT8: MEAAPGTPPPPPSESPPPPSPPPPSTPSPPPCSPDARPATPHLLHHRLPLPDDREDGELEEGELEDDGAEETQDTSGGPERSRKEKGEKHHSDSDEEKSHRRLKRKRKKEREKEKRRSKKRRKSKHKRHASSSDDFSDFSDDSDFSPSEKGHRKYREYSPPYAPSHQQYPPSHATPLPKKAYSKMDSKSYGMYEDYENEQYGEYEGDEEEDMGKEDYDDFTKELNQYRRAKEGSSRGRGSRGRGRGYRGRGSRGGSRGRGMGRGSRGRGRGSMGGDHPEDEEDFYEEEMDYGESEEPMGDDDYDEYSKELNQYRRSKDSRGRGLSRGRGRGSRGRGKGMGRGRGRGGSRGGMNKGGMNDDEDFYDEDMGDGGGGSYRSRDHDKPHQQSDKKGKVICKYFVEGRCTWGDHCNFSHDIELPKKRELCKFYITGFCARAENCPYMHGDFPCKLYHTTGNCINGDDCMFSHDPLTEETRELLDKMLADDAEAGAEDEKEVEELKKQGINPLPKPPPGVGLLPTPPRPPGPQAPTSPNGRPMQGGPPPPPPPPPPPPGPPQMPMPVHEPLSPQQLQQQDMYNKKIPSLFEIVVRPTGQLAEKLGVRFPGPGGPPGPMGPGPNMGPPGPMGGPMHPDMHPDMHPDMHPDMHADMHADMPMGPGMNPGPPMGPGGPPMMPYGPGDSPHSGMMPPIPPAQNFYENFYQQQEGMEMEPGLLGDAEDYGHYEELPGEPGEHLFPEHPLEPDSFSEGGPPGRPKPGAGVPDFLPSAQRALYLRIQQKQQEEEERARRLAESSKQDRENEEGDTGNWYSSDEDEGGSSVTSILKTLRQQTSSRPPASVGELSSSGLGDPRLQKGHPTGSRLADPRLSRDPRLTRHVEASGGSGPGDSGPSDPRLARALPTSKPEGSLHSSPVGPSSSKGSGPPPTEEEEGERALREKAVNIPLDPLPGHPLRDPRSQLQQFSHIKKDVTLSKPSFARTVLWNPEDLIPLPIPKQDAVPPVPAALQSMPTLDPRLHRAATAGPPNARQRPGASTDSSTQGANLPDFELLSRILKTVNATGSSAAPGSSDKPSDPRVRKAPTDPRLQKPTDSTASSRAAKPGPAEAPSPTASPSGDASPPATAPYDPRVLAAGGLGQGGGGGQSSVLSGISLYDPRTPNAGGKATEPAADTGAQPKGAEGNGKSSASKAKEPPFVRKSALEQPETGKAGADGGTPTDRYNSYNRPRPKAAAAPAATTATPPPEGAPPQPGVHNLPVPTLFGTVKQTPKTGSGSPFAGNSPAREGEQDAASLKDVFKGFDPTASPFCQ
UniProt Q9UQN3, whole entry: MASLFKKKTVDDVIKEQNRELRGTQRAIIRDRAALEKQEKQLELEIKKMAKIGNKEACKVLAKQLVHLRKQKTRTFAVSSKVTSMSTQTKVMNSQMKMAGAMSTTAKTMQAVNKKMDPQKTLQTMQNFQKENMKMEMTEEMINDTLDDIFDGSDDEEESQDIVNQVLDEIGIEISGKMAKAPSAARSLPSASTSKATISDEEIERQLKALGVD
UniProt Q9ULH0: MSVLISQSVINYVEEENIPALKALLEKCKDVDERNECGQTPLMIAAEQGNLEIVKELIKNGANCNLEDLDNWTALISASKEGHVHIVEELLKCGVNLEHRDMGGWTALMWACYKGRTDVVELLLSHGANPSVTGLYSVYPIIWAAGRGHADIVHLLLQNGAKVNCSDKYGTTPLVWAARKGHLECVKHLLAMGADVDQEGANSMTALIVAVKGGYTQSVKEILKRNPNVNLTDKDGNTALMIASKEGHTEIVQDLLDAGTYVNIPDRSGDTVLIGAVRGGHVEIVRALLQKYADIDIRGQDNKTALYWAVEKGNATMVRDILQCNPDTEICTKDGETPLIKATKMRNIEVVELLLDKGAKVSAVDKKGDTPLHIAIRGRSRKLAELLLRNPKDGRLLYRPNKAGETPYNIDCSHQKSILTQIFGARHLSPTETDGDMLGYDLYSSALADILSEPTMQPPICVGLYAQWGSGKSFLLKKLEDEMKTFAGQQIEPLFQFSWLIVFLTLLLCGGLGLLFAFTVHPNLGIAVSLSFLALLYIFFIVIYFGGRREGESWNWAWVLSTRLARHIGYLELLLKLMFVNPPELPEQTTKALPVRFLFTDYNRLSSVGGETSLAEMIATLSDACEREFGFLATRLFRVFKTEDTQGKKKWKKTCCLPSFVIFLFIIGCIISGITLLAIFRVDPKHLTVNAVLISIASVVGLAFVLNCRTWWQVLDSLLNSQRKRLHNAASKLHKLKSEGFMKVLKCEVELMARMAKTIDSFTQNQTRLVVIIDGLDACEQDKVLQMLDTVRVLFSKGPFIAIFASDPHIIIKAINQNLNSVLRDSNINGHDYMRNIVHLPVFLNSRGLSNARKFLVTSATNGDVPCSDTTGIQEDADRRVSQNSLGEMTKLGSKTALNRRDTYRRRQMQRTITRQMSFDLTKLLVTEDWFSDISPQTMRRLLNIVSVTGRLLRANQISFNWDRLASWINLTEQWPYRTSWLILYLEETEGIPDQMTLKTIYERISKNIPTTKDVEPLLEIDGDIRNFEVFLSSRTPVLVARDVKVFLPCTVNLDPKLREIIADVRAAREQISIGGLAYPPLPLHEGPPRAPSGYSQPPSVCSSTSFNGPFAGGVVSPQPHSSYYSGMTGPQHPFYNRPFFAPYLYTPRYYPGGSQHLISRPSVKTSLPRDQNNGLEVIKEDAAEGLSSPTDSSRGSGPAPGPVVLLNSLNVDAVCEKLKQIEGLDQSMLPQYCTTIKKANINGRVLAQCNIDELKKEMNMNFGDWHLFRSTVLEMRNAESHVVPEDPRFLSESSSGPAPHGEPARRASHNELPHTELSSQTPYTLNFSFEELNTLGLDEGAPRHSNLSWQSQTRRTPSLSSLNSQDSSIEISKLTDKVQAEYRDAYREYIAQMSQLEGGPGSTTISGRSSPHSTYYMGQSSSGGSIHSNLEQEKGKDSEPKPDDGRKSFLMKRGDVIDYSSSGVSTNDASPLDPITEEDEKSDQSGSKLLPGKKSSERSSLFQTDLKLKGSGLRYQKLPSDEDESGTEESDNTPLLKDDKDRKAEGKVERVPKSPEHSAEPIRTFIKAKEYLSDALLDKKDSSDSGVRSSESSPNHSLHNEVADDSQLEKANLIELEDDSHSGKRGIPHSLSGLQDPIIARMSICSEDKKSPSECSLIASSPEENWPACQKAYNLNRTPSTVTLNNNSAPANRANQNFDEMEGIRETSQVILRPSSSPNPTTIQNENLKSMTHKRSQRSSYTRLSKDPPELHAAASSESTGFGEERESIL
UniProt Q9UJX5, whole entry: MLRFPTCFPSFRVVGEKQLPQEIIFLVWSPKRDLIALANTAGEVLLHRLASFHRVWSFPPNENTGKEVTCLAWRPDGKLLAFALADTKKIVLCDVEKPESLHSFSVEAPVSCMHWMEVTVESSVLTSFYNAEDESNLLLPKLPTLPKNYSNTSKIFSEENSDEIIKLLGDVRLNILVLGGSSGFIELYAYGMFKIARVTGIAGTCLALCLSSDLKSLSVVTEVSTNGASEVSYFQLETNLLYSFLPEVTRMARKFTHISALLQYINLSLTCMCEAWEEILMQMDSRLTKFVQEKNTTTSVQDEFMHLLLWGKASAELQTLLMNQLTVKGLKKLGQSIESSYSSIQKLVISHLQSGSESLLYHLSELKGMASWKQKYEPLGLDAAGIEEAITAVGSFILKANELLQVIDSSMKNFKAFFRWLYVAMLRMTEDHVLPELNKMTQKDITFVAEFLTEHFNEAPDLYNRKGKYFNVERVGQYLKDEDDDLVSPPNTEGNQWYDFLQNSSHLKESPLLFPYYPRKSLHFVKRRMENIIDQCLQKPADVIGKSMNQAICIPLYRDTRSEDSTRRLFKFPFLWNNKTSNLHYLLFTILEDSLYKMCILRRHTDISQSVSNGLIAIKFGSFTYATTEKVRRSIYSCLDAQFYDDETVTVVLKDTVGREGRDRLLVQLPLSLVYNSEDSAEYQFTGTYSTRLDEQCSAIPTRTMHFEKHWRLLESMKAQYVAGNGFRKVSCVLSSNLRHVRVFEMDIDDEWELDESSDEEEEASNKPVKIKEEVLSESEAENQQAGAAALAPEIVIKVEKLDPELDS
UniProt Q9UNI6, whole entry: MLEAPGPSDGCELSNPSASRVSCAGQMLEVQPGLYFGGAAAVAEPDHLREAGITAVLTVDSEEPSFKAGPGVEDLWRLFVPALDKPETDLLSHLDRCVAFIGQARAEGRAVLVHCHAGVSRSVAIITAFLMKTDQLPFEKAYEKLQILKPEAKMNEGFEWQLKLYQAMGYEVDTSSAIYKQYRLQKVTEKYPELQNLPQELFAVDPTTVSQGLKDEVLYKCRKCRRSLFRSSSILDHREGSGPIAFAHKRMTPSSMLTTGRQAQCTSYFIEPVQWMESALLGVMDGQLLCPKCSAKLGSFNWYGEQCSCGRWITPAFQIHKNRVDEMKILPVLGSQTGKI
UniProt Q9UM11, whole entry: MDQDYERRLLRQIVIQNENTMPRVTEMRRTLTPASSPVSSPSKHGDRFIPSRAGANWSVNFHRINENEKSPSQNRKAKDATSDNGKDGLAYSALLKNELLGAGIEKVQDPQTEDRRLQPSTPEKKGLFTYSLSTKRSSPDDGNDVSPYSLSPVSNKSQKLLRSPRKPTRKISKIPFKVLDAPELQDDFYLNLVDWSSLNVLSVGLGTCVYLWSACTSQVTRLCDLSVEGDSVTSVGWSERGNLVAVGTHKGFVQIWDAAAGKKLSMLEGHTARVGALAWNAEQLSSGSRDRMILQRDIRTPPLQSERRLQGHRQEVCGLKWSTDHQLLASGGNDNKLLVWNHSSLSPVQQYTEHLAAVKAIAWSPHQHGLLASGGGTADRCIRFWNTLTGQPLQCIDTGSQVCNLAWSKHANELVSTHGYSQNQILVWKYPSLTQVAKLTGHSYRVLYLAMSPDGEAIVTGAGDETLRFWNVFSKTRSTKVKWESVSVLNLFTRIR
UniProt Q9UHW5, whole entry: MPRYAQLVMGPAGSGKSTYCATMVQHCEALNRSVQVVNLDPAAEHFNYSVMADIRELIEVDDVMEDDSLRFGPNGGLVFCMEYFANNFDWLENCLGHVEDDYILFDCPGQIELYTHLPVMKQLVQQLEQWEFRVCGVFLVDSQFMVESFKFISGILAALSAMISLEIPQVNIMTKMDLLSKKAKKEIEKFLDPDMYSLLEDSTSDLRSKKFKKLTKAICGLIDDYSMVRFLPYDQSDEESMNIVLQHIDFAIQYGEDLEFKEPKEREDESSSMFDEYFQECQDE

The list shows a part of the results. Most values lie at the level of the controls, where differences are scatter.

Compound in the assay: Cc1nc(Nc2ncc(C(=O)Nc3c(C)cccc3Cl)s2)cc(N2CCN(CCO)CC2)n1 [dasatinib]
Nature of the assay: log2 fold change of tryptic peptide abundance, ligand vs vehicle (limited proteolysis) (log2 ratio); higher = more trypsin-susceptible (destabilized). To be noted: ligand concentration: 5 uM; sample: K562 cleared lysate.
Turning to “MRM2 (peptide sequence: KESSEVYFLATQYHGRK, peptide start residue: 225) (UniProt Q9UI43)”, the log2 fold change was -0.192.
The same measure for “UniProt Q9UHJ3 (peptide sequence: STDCAPLAR, peptide start residue: 807)”: 0.255.
The same measure for “UniProt Q9UL18 (peptide sequence: LFCADKNER, peptide start residue: 713)”: 0.58; for “ZC3H4 (peptide sequence: AVNIPLDPLPGHPLRDPR, peptide start residue: 936) (UniProt Q9UPT8)”: -0.132.
Then “CHMP2B (peptide sequence: QLVHLRK, peptide start residue: 64) (UniProt Q9UQN3)”, with -0.318; and “KIDINS220 (peptide sequence: VSQNSLGEMTK, peptide start residue: 881) (UniProt Q9ULH0)”, with 0.352.
As for “ANAPC4 (peptide sequence: WLYVAMLR, peptide start residue: 420) (UniProt Q9UJX5)”, the log2 fold change was -0.212.
Then “DUSP12 (peptide sequence: ILPVLGSQTGKI, peptide start residue: 329) (UniProt Q9UNI6)”, with -0.356.
Then “FZR1 (peptide sequence: DATSDNGKDGLAYSALLK, peptide start residue: 79) (UniProt Q9UM11)”, with -0.000318; and “GPN3 (peptide sequence: STYCATMVQHCEALNR, peptide start residue: 17) (UniProt Q9UHW5)”, with -0.15.
